Laboratory results published in patent US20250333487A1 (CYTOMX THERAPEUTICS, published 2025).
No constants are given. Whether binding was seen depends on the method and setting. Some binding calls cover weakened binding; strength is not graded here. Tags and fused reporters may be left off the sequences shown.

Target: T1, biotinylated BC2 tag peptide QGQSGQPDRKAAVSHWQ
T1 construct: Synthesized at ELIM Biopharmaceuticals; loaded on SSA biosensor tips at 100 nM; also called free BC2T peptide; the peptide
T1 peptide: Biotin-QGQSGQPDRKAAVSHWQ
Assay: BLI (ForteBio Octet), biotinylated peptide on SSA biosensor tips, 100 nM Nb
Protocol: Binding of the unmasked nanobody and single-anchored BC2T-Nb to free BC2T peptide was assessed by BLI using the ForteBio Octet device. While BLI is generally used to calculate association and dissociation kinetics of binding interactions, it was used herein to detect binding Peptide corresponding to the following sequence: […] (SEQ ID NO: 567) was synthesized at ELIM Biopharmaceuticals with a biotin at the N-terminus. The peptide was loaded on SSA biosensor tips (Pall/ForteBio Cat #18-5117) at 100 nM in Binding Buffer (BB: 1×PBS, pH 7.2, 5% glycerol, 0.1% Tween-20, 2% BSA) for 10 minutes. Baseline incubation in BB for 1 min before and after this capture step were used to confirm protein capture. The loaded tips were then incubated in 100 nM Nb in BB for 6 minutes followed by incubation in BB for 6 minutes. Changes in interference distance (nanometers) at the sensor tip are plotted against time to follow the binding/dissociation of soluble proteins from the immobilized ligand on the tip (FIG. 7).

B1: product of ProC653 and MMP14 (ProC653+MMP14), activated ProC653 (VHH, not shown: small tags and cut ends)
VHH: QVQLVESGGGLVQPGGSLTLSCTASGFTLDHYDIGWFRQAPGKEREGVSCINNSDDDTYYADSVKGRFTIFMNNAKDTVYLQMNSLKPEDTAIYYCAEARGCKRGRYEYDFWGQGTQVTVSS
  binding: binds

B2: product of ProC654 and MMP9 (ProC654+MMP9), activated ProC654 (VHH, not shown: small tags and cut ends)
VHH: QVQLVESGGGLVQPGGSLTLSCTASGFTLDHYDIGWFRQAPGKEREGVSCINNSDDDTYYADSVKGRFTIFMNNAKDTVYLQMNSLKPEDTAIYYCAEARGCKRGRYEYDFWGQGTQVTVSS
  binding: binds
